A short description of this test: qHTS Assay for Lipid Storage Modulators in Drosophila S3 Cells.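 For cell number change: cells counted by Cell Tracker Red CMTPX staining in the red channel.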 The note with it: BODIPY lipid droplet fluorescence, 18-24 h; for cell number change: measured here: cell count max response, cells fed with added oleic acid. The method in brief:
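Drosophila S3 cells loaded with oleic acid (400 uM, as added) and compounds at several concentrations; lipid droplets imaged by 488-nm laser-scanning cytometry, 500–530 nm intensity and object ratio to cell channel. Percent activity normalized to 20 uM Triacsin C.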

Where [1] appears, read: measured here: cell number channel AC50, cells fed with added oleic acid.
The mark [2] stands for this setting: measured here: lipid fluorescence (Fed channel) AC50, cells fed with added oleic acid.

This is one part of the list. Shown are side measurements of this screen, not its main read-out; they come without a call. The list favours compounds with an active or inconclusive main result. Potencies come from curve fits of mixed quality, noted in brackets.

As for `COc1cc(C)nc(OCCNC(=O)COc2ccc(Cl)cc2C)n1`, the cell number change is 56.8%. In addition, the concentration at half-maximal activity (AC50) under setting [1] was 0.58 µM [rising, full curve]. Moreover, the AC50 under setting [2] was 1.46 µM [rising, full curve].
Consider `CC(C)(C)NC(=O)Cn1nnc(-c2ccccc2Cl)n1`, for which the AC50 under setting [1] was 1.03 µM [falling, partial curve, poor fit].
As for `Cc1cccc(C(=O)NC(=S)NNC(=O)c2ccccc2Cl)c1`, the cell number change amounted to 8.8%. Further, the concentration at half-maximal activity (AC50) under setting [2] is 8.2 µM [rising, partial curve].
For `COc1cc(C(=O)Nc2ccc(S(=O)(=O)NC(C)C)cc2)cc(OC)c1OC`, the AC50 under setting [1] was 2.31 µM [rising, partial curve].
For `C/C(CC(=O)C(F)(F)F)=N\NC(=O)/C(C#N)=C/N(C)C`, the cell number change is -25.3%.
`CC(=O)c1sc2nc(CSc3nnnn3-c3ccccc3)[nH]c(=O)c2c1C`: the concentration at half-maximal activity (AC50) under setting [2] was 2.31 µM [rising, partial curve].
As to `NC(=O)c1c(NC(NC(=O)c2ccco2)C(=O)c2ccc(Cl)cc2)sc2c1CCCC2` (stereo not given), the cell number change was -1.54%.
With `CC(=O)Nc1cccc(NC(=O)C(=O)NCC(c2ccco2)N2CCc3ccccc3C2)c1` (stereo not given), under setting [2], the AC50 was 3.26 µM [rising, single point].
With `Cc1cc(=O)c2n(Cc3ccc(Cl)cc3)nc[n+]2[nH]1`, the cell number change stood at 26.5%. Moreover, under setting [2], the AC50 was 0.731 µM [falling, single point].
Take `O=C1/C(=C/c2ccc(F)cc2)SC(=S)N1CCCC(=O)N1CCCCC1CCO` (stereo not given): the cell number change was -14.6%.
As to `O=C(O)C1Nc2ccc(Br)cc2C2C=CCC12` (stereo not given), the cell number change was -11%.
As for `C[C@H](NC(=O)c1ccc(Br)cc1)C(=O)NCc1ccc(S(N)(=O)=O)cc1`, the cell number change amounted to 6.22%. Also, the AC50 under setting [1] is 0.092 µM [rising, full curve, poor fit].
For the molecule `O=c1c(Cl)c(NCc2ccccc2Cl)cnn1C12CC3CC(CC(C3)C1)C2`, the AC50 under setting [2] was 10.3 µM [falling, partial curve].
As for `O=[N+]([O-])c1cc2c(cc1/C=N/Nc1nc(N3CCCC3)nc(N3CCCC3)n1)OCO2`, the cell number change was -11.9%. Moreover, the concentration at half-maximal activity (AC50) under setting [1] is 0.517 µM [rising, partial curve, poor fit]. Besides, the AC50 under setting [2] is 0.731 µM [rising, partial curve, poor fit].
`O=C(Nc1cccc(C(=O)NC2CCCC2)c1)c1ccccc1`: the cell number change was -45.5%. The concentration at half-maximal activity (AC50) under setting [1] was 29.1 µM [falling, single point]. Also, the AC50 under setting [2] is 32.6 µM [falling, partial curve, poor fit].
In the case of `CC(=O)N[C@@H](Cc1c[nH]c2ccccc12)C(=O)NCc1ccccc1`, the cell number change was found to be 9.58%.
For the molecule `Cc1cc(S(=O)(=O)NCc2ccccc2)ccc1OCC(=O)N1CCCC1`, the cell number change is -8.8%. The AC50 under setting [2] was 7.31 µM [falling, single point].
For the molecule `COc1ccc(O)c(/C=N/c2nc3ccccc3n2C)c1`, the cell number change came to 21.4%.
In the case of `COC(=O)c1ccc(C)c(NC(=O)CSc2nnc3ccccn23)c1`, the cell number change was -4.39%. Also, the AC50 under setting [2] is 29.1 µM [rising, partial curve, poor fit].
Consider `O=C(CSc1nnc2ccccn12)NNC(=O)c1ccc(F)cc1`, for which, under setting [1], the concentration at half-maximal activity (AC50) was 6.51 µM [rising, single point].
Take `CC(=O)N1N=C(c2ccc(C)o2)CC1c1ccc(Br)cc1` (stereo not given): the cell number change is -10.9%.
Still for that read-out and setting: next, `CCN(CC)C(=O)C1CCN(S(=O)(=O)c2ccc3oc4ccccc4c3c2)CC1`: 0.08%.
In the case of `CN(Cc1ccccc1)Cc1nc2c(c(=O)n(C)c(=O)n2C)n1Cc1ccccc1Cl`, the cell number change amounted to 11.2%. Further, under setting [2], the half-maximal activity concentration (AC50) was 2.31 µM [rising, single point].
For `COc1ccccc1CN(C(=O)CNC(=O)c1ccco1)C(C(=O)NCC1CCCO1)c1ccc(OC)c(OC)c1` (stereo not given), the cell number change was -14.3%.
On to `O=C(c1cc(-c2ccncc2)nc2ccccc12)N1CCN(c2ccc(N3CCOCC3)nn2)CC1`, for which the cell number change amounted to 147%. Moreover, the AC50 under setting [1] was 29.1 µM [rising, single point].
Turning to `Cc1ccc(C2=NC3(CCCC3)N=C2SCC(=O)Nc2ccc3c(c2)OCCO3)cc1`, the cell number change came out at 18%. For the same molecule, the concentration at half-maximal activity (AC50) under setting [2] is 1.46 µM [rising, full curve].
Consider `O=C(C1CCCN1C(=O)c1cccs1)N1CCN(S(=O)(=O)c2ccc(F)cc2)CC1` (stereo not given), for which the cell number change was determined as 13.6%. The half-maximal activity concentration (AC50) under setting [2] was 18.4 µM [rising, partial curve].
For `CC(NC(=S)Nc1ccc(Cl)cc1Cl)C(c1cccs1)N1CCCC1` (stereo not given), the cell number change was 32.3%. Besides, the half-maximal activity concentration (AC50) under setting [1] is 10.3 µM [rising, single point].
Turning to `Cc1ccc(-c2c(C)n([O-])c3c([n+]2=O)CCC3)cc1`, the cell number change was -20.8%. For the same molecule, the AC50 under setting [2] is 20.6 µM [falling, single point].
Regarding `COC(=O)CCC(C)N1CCC(Oc2ccc(C(=O)N3CCCC3)cc2)CC1` (stereo not given), the cell number change came to 18.9%.
Consider `C[C@@H]1CC[C@@]2(O[C@H](CCO)C[C@H](O)[C@H]2O)O1`, for which the cell number change was -17.7%. For the same molecule, the AC50 under setting [2] was 25.9 µM [falling, single point].
For the molecule `Cn1ncc(Cl)c1C(=O)N1CCCc2ccccc21`, the cell number change is -17.3%. Also, under setting [2], the half-maximal activity concentration (AC50) is 29.1 µM [rising, single point].
`CN(C)c1nn(C(=O)Nc2ccc(Cl)cc2Cl)cc1-c1ccccc1`: the cell number change is -50.5%. Also, under setting [1], the AC50 was 2.06 µM [falling, full curve, poor fit].
`COc1ccc(CN(C)C(=O)c2ccc3ccccc3n2)cc1F`: the cell number change was -11.5%. Further, the AC50 under setting [2] was 29.1 µM [rising, single point].
Turning to `CCC(C)NS(=O)(=O)c1ccc(OCC(=O)NCc2ccccn2)cc1` (stereo not given), the cell number change is -8.14%. The half-maximal activity concentration (AC50) under setting [1] was 6.51 µM [falling, single point].
As for `CCNS(=O)(=O)c1ccc(NC(=O)Nc2cccc(C(F)(F)F)c2)cc1`, the cell number change is -47%. Besides, under setting [1], the concentration at half-maximal activity (AC50) is 29.1 µM [falling, single point]. Besides, the concentration at half-maximal activity (AC50) under setting [2] is 0.13 µM [falling, full curve, poor fit].
For `O=C(Nc1ccc2cn[nH]c2c1)c1ccc(Cl)c(S(=O)(=O)N2CCOCC2)c1`, the cell number change was 24%. The AC50 under setting [2] was 0.58 µM [rising, full curve].
In the case of `Cc1ccc(C)c(C(C)NC(=O)C2CCCC2)c1` (stereo not given), the cell number change is -18.1%. Moreover, the AC50 under setting [2] is 6.51 µM [rising, single point].
On to `O=C(COc1ccccc1)Nc1nnc(-c2ccc(F)cc2)o1`, for which the concentration at half-maximal activity (AC50) under setting [2] is 6.51 µM [rising, single point].
For `Cc1ccc(SCC2(O)CCN(C(=O)c3ccc(Cl)cc3)CC2)cc1`, the cell number change was -22.3%. Besides, under setting [1], the concentration at half-maximal activity (AC50) was 0.517 µM [rising, full curve]. For the same molecule, the AC50 under setting [2] is 29.1 µM [falling, single point].
With `Cc1cccc(C)c1NC(=O)C(NC=O)c1ccc(N(C)C)cc1` (stereo not given), the cell number change stood at 2.97%. Also, the AC50 under setting [1] was 1.64 µM [falling, partial curve, poor fit]. The AC50 under setting [2] is 1.64 µM [falling, partial curve, poor fit].
Consider `Cc1ccc(S(=O)(=O)CCC(=O)Nc2nnc(-c3ccco3)o2)cc1`, for which the cell number change came out at 11.2%.
As to `COc1ccc(NC(=O)CCC(=O)N2CCOCC2)c([N+](=O)[O-])c1`, the cell number change stood at 12.3%.
For `Cc1cc(C)c2c(N)c(C(=O)NN)sc2n1`, the cell number change is 11%. Moreover, under setting [1], the AC50 is 4.11 µM [rising, single point].
Consider `CCN1CCN(c2oc(-c3ccccc3)nc2S(=O)(=O)c2ccc(C)cc2)CC1`, for which the cell number change was 69.4%. The AC50 under setting [1] was 16.4 µM [rising, single point].
For the molecule `CC(NC(=O)C(NS(=O)(=O)c1cccs1)C(C)C)c1ccc(S(N)(=O)=O)cc1` (stereo not given), the cell number change is -16.3%. Besides, the AC50 under setting [2] was 5.8 µM [falling, full curve, poor fit].
As to `CN1C(=O)C(=O)/C(=C(/O)c2ccc(Br)cc2)C1c1ccc(F)cc1` (stereo not given), the cell number change is -21.7%. For the same molecule, under setting [2], the AC50 was 0.0517 µM [falling, full curve, poor fit].
For the molecule `CCc1ccc(CN2CCCC(CNC(=O)c3cccc(OC)c3OC)C2)cc1` (stereo not given), the cell number change was 1.46%. In addition, under setting [2], the AC50 was 7.31 µM [rising, partial curve].
Take `CC1=C(CC(=O)NCC(=O)NCC(=O)O)c2cc(F)ccc2/C1=C/c1ccc(S(C)=O)cc1` (stereo not given): the half-maximal activity concentration (AC50) under setting [1] is 0.326 µM [rising, partial curve, poor fit].
Turning to `COc1ccc(NC(=O)CNC(=O)c2c(C)nn(C)c2Cl)cc1`, the cell number change was 25.8%.
On to `O=C(Cc1c(F)cccc1Cl)N/N=C/c1cccs1`, for which the cell number change was -9.9%. Further, the half-maximal activity concentration (AC50) under setting [2] is 0.82 µM [rising, full curve].
As for `COc1ccc(S(=O)(=O)N(CC(=O)N2CCOCC2)c2ccc(F)cc2)cc1OC`, the cell number change is -9.21%. Under setting [2], the AC50 is 35.5 µM [falling, single point].
For the molecule `CCOCC(=O)Nc1cc(Cl)c(OC)cc1OC`, the cell number change came out at 17.5%. For the same molecule, the AC50 under setting [2] is 0.58 µM [falling, single point].
As for `COc1ccc(NC(=O)CN2C(=O)COc3ccc(C)cc32)c(OC)c1`, the cell number change is -1.17%. Besides, the half-maximal activity concentration (AC50) under setting [2] is 10.3 µM [rising, partial curve].
Take `O=C(Cn1ccc([N+](=O)[O-])n1)NCc1cccnc1`: the cell number change was -28.7%. Besides, under setting [2], the concentration at half-maximal activity (AC50) is 0.651 µM [falling, full curve, poor fit].
As to `CCOc1ccc2nc(N(CCN(C)C)C(=O)c3ccc4c(c3)CCCC4)sc2c1`, the cell number change is 10.4%. In addition, the AC50 under setting [2] was 14.6 µM [falling, single point].
In the case of `Cc1nn(Cc2ccc(Cl)cc2)c(C)c1NC(=O)CSc1n[nH]c(C)c1[N+](=O)[O-]`, the cell number change came out at 26.6%. In addition, the half-maximal activity concentration (AC50) under setting [2] was 18.4 µM [rising, single point].
As for `CC(NS(=O)(=O)c1ccc(Cl)cc1)C(=O)Nc1ccc2c(c1)OCCO2` (stereo not given), the cell number change was -23.7%.
Turning to `COc1ccc(CN(CC(=O)NCc2ccc(F)cc2)C(=O)CCC(=O)Nc2cc(C)ccn2)cc1`, under setting [2], the AC50 is 29.1 µM [falling, single point].
As to `O=[N+]([O-])c1cccc(Cl)c1NCCNS(=O)(=O)c1ccc(Cl)cc1`, the cell number change is -27.8%. The AC50 under setting [2] is 16.4 µM [falling, single point].
For the molecule `Cc1cccc(C(=O)NCCN2CCN(c3ccccc3)CC2)c1`, the cell number change is -28.4%. Further, the AC50 under setting [2] was 20.6 µM [falling, partial curve, poor fit].
For `O=C(Nc1ccccc1Cl)O/N=C(/c1ccccc1)c1ccccn1`, the cell number change is 20.1%. In addition, under setting [2], the concentration at half-maximal activity (AC50) was 58 µM [rising, partial curve, poor fit].
Turning to `Cc1oc(-c2ccccc2Cl)nc1CS(=O)CC(=O)NCc1cccs1` (stereo not given), the cell number change amounted to 46.3%. Besides, under setting [1], the AC50 was 6.51 µM [rising, single point]. Further, under setting [2], the AC50 was 0.146 µM [falling, full curve, poor fit].

The record behind these values is PubChem BioAssay AID2685 (National Center for Advancing Translational Sciences (NCATS), 2010).
